The target of assay [1] is recombinant human Dsg1-Fc chimera (human) (UniProt Q02413). Briefly: adherence of bacteria to coated wells; Dsg1-Fc chimera coated (0.1 to 1 μg/well, carbonate buffer pH 9.6); S. aureus NCTC8325-4 or NCTC8325-4ΔsdrD in PBS added for 2 h at 37 °C; crystal violet, absorbance at 570 nm; only the target purified.
For assay [2] the target is unchanged. Briefly: adherence of bacteria to coated wells; S. aureus NCTC8325-4 pre-incubated for 30 min at room temperature with Dsg1-Fc (10 μg/ml), IgG1 Fc (10 μg/ml) or PBS, then added to wells coated with Dsg1-Fc (1 μg/well); crystal violet, absorbance at 570 nm; only the target purified.

By UniProt entry, the sequences of proteins in these tests, tags left out. Where a name states a change or a piece, a line headed by the entry shows the natural chain unless it says otherwise. Residues count along the entry.
UniProt Q02413, residues 50-548: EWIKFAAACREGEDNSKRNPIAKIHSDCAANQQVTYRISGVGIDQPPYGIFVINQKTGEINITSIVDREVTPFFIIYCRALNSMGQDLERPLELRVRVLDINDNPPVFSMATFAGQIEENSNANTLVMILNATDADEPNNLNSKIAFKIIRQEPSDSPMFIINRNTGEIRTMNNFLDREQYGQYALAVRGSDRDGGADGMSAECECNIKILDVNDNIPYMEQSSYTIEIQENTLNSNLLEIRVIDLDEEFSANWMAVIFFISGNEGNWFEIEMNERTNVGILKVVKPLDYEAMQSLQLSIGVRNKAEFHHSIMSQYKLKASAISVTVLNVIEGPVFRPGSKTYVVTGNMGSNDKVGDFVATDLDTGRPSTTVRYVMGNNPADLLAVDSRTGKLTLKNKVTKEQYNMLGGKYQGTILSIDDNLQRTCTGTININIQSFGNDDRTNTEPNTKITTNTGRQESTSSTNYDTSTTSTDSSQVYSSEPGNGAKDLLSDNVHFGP
UniProt Q2G0L4, residues 36-1315: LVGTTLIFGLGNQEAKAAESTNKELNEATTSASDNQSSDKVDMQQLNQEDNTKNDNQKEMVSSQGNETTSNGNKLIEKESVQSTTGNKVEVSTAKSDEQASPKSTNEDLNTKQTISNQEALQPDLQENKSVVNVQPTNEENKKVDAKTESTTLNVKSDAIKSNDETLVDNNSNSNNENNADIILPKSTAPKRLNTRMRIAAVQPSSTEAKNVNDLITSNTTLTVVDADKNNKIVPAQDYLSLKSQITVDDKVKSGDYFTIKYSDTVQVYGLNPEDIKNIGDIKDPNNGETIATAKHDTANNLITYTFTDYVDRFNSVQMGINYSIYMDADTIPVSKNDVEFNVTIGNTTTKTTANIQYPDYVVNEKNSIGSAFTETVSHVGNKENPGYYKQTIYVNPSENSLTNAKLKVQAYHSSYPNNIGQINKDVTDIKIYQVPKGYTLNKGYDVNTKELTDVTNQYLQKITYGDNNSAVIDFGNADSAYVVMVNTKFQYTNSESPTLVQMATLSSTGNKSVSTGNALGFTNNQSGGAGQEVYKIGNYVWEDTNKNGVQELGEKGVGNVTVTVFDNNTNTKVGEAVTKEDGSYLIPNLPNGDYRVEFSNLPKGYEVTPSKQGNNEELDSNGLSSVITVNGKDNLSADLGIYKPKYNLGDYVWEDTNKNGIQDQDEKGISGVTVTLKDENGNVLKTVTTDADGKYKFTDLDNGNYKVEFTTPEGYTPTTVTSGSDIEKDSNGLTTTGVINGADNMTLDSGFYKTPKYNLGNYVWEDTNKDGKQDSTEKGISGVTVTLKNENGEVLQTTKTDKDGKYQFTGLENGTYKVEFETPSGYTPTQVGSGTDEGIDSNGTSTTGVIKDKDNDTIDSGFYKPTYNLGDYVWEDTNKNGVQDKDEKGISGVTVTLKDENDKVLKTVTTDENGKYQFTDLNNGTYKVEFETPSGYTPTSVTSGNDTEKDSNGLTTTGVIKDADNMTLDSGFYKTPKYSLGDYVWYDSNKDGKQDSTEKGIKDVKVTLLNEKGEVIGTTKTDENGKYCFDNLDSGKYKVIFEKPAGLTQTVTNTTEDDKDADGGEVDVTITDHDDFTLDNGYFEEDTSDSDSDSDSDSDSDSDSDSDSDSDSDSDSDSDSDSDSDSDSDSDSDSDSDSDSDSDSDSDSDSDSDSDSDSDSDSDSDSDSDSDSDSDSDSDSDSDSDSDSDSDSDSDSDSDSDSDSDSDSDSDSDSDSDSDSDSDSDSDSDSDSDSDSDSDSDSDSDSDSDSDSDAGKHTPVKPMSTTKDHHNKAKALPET

No constants are given. Whether binding was seen depends on the method and setting. Some results given as binding are weak or reduced against the parent protein; the word gives no strength.

This passage reports binding results from paper PMC4770587.

As to “SdrD on S. aureus NCTC8325-4 cells (from UniProt Q2G0L4 36-1315)”, the binding result in assay [1] and in assay [2] was “binds” throughout.
